# In PubChem BioAssay AID274 (DTP/NCI, 2004):
# The list is a part of this screen's results and no random one: it is rich in T/C values a quarter to a half above the control, in often repeated tests (any T/C) and in doses without a T/C. Further doses and runs are listed elsewhere. T/C: endpoint of the treated group in % of that of the vehicle group. Some entries give survivors of the animals treated and no T/C: the source files T/C as zero there, which appears to mark a toxic dose or a test without result, not a measured value. Some doses without a T/C left all or most animals alive at the check, yet need not have been tolerated: the source hardly ever lists a survival T/C far under the control, and the zero likely stands for such cases as well. Survivors were counted at the toxicity check, usually on the fifth day, unless a day is given; later deaths do not show. Schedule codes are those of the source, taken here to give the interval after Q, in days (D) or hours (H), and the number of doses after X. Signs of the kind (2×) give the number of equal values in this list. For survival time, the PubChem record calls one and a half times the control and up active, and a quarter to a half above the control has no call in these data; cut-offs in other NCI protocols can differ. Numbered stars: 1 amine (or outer) side, 2 acyl side, 3 side chain; on linkers, the order of the positions; unused ones are H or OH. Bridge positions count the residues as written; N and C are the ends. Square brackets hold non-standard residues; d marks the D form. Peptide text beside a SMILES is read from it. I, II: the chains in the order shown. Actinocin(1to9) = Cc1c2oc3c(C)ccc(C(=O)[*:2])c3nc-2c(C(=O)[*:1])c(N)c1=O; NMeV = CN[CH](C(=O)O)C(C)C; Aze = O=C(O)[CH]1CCN1; Sar = CNCC(=O)O
# Test system: BDF1 mice, Lewis lung carcinoma iv, survival T/C
# Assay: NCI In Vivo Anticancer Drug Screen. Data for tumor model Lewis Lung Carcinoma (intravenous) in B6D2F1 (BDF1) mice
# Settings: T/C endpoint: median survival time, higher T/C = longer survival
# Experimental: The antitumor activity of compounds was measured in mice bearing transplantable tumors. Survival or tumor size were measured and the results are expressed as the measurement made in the treated group (T) divided by the measurement made in the vehicle treated control group (C). The tumor model used in this assay is Lewis Lung Carcinoma (intravenous) in B6D2F1 (BDF1) mice
# [1] = dose: 200.0 mg/kg/injection, schedule: Q01DX009 (ip), vehicle: Klucel (hydroxypropylcellulose) (HPC)
# [2] = dose: 100.0 mg/kg/injection, schedule: Q01DX009 (ip), vehicle: suspension in saline
# [3] = dose: 400.0 mg/kg/injection, schedule: Q01DX009 (ip), vehicle: saline
# [4] = dose: 400.0 mg/kg/injection, schedule: Q01DX009 (ip), vehicle: Klucel (hydroxypropylcellulose) (HPC)
# [5] = dose: 400.0 mg/kg/injection, schedule: Q01DX009 (ip), vehicle: saline with Tween-80
# [6] = dose: 150.0 micrograms/kg/injection, schedule: Q01DX009 (ip), vehicle: saline + alcohol
# [7] = dose: 300.0 micrograms/kg/injection, schedule: Q01DX009 (ip), vehicle: saline + alcohol
# [8] = dose: 25.0 mg/kg/injection, schedule: Q01DX009 (ip), vehicle: saline with Tween-80
# [9] = dose: 50.0 mg/kg/injection, schedule: Q01DX009 (ip), vehicle: saline with Tween-80
compound,measurement,setting,value
O=c1oc2c(O)c(O)cc3c(=O)oc4c(O)c(O)cc1c4c23,T/C,[1],126 % of control
[Cl][Sn]([c]1ccccc1)[c]1ccccc1,survivor count,"dose: 25.0 mg/kg/injection, schedule: Q01DX009 (ip), vehicle: saline",10 of 10
same,survivor count,"dose: 50.0 mg/kg/injection, schedule: Q01DX009 (ip), vehicle: saline",1 of 10
same,survivor count,"dose: 100.0 mg/kg/injection, schedule: Q01DX009 (ip), vehicle: saline",0 of 10
CC[N](CC)[Ge]([CH2]C)[CH2]C.CC[N](CC)[Ge]([CH2]C)[CH2]C,survivor count,[2],4 of 10
c1cc2n(n1)CCN2,survivor count,[3],0 of 10
O=C1C(=O)c2ccccc2C(O)=C1CC=C(Cl)Cl,survivor count,"dose: 100.0 mg/kg/injection, schedule: Q01DX009 (ip), vehicle: Klucel (hydroxypropylcellulose) (HPC)",8 of 10
same,survivor count,[1],4 of 10
same,survivor count,[4],0 of 10
Nc1nc(/C=C(/O)c2ccccc2)c2ncn(C3OC(CO)C(O)C3O)c2n1 (centres undefined),survivor count,"dose: 200.0 mg/kg/injection, schedule: Q01DX009 (ip), vehicle: saline",8 of 10
same,survivor count,[3],3 of 10
COc1ccc(-c2csc(=[N+]3CCCCC3)s2)cc1,survivor count,"dose: 50.0 mg/kg/injection, schedule: Q01DX009 (ip), vehicle: water",0 of 10
Nc1nc2n[nH]nc2c(=O)[nH]1,survivor count,[2],10 of 10
same,survivor count,"dose: 200.0 mg/kg/injection, schedule: Q01DX009 (ip), vehicle: suspension in saline",10 of 10
same,survivor count,"dose: 400.0 mg/kg/injection, schedule: Q01DX009 (ip), vehicle: suspension in saline",7 of 10
COC1C(CO)OC(n2cnc3c(=S)nc(N)[nH]c32)C1O (centres undefined),survivor count,[1],10 of 10
same,survivor count,[4],10 of 10
CC(=O)O[C@@H]1C(=O)C=C(C)[C@@H]2[C@@H](OC(=O)C=C(C)C)[C@H]3OC(=O)C[C@H]4[C@@H](C)[C@@H](O)[C@]5(O)OC[C@]34[C@H]5[C@@]12C,T/C,"dose: 2.0 mg/kg/injection, schedule: Q01DX009 (ip), vehicle: saline",127 % of control
O=C(NCCCCCCNC(=O)N1CC1)N1CC1,T/C,"dose: 4.8 mg/kg/injection, schedule: Q01DX009 (ip), vehicle: saline",134 % of control
same,survivor count,"dose: 9.6 mg/kg/injection, schedule: Q01DX009 (ip), vehicle: saline",10 of 10
COc1cc(NS(C)(=O)=O)ccc1Nc1c2ccccc2nc2ccccc12,T/C,"dose: 10.0 mg/kg/injection, schedule: Q04DX003 (ip), vehicle: clinical formulation",140 % of control
[N-]=[N+]=CC(=O)CCC(=O)C=[N+]=[N-],survivor count,"dose: 3.12 mg/kg/injection, schedule: Q01DX009 (ip), vehicle: DMSO",10 of 10
same,survivor count,"dose: 6.25 mg/kg/injection, schedule: Q01DX009 (ip), vehicle: DMSO",10 of 10
same,survivor count,"dose: 12.5 mg/kg/injection, schedule: Q01DX009 (ip), vehicle: DMSO",10 of 10
same,survivor count,"dose: 25.0 mg/kg/injection, schedule: Q01DX009 (ip), vehicle: DMSO",9 of 10
S=P(N1CC1)(N1CC1)N1CC1,survivor count,"dose: 8.0 mg/kg/injection, schedule: Q01DX009 (ip), vehicle: saline with Tween-80",9 of 10
same,survivor count,"dose: 16.0 mg/kg/injection, schedule: Q01DX009 (ip), vehicle: saline with Tween-80",10 of 10 (2×)
COc1cccc2c1C(=O)c1c(O)c3c(c(O)c1C2=O)CC(O)(/C(C)=N/NC(=O)CCC(=O)N/N=C(\C)C1(O)Cc2c(O)c4c(c(O)c2C(OC2CC(N)C(O)C(C)O2)C1)C(=O)c1c(OC)cccc1C4=O)CC3OC1CC(N)C(O)C(C)O1 (centres undefined),survivor count,"dose: 24.0 mg/kg/injection, schedule: Q01DX009 (ip), vehicle: water",10 of 10
O=C1OC(C(O)CO)C(O)=C1O (centres undefined),survivor count,"dose: 800.0 mg/kg/injection, schedule: Q01DX009 (ip), vehicle: saline",8 of 10
same,survivor count,"dose: 1600.0 mg/kg/injection, schedule: Q01DX009 (ip), vehicle: saline",0 of 10
CCCCOCN(COCCCC)C(C)Cc1ccccc1 (centres undefined),survivor count,[5],7 of 10
CCC/C=C/C=C/C(=O)OC1/C(=C/C(=O)OC)CC2CC(C(C)O)OC(=O)CC(O)CC3CC(OC(C)=O)C(C)(C)C(O)(CC4C/C(=C/C(=O)OC)CC(/C=C/C(C)(C)C1(O)O2)O4)O3 (centres undefined),survivor count,[6],8 of 10
same,survivor count,[7],4 of 10
CC(=O)O[C@@H]1[C@@H](O)C2=C3[C@]4(C)[C@@H]1C(C)(C)C(=O)C[C@@H]4[C@]3(O)[C@H](OC(C)=O)[C@@]1(C[C@@H]1C)C2=O,T/C,[8],141 % of control
same,survivor count,[9],10 of 10
same,survivor count,"dose: 100.0 mg/kg/injection, schedule: Q01DX009 (ip), vehicle: saline with Tween-80",6 of 10
Cc1c2cc[n+](CCN3CCCCC3)cc2c(C)c2c1[nH]c1ccc(O)cc12,survivor count,"dose: 50.0 mg/kg/injection, schedule: Q01DX009 (ip), vehicle: suspension in saline",10 of 10
CC1OC(O[C@H]2/C=C/C=C/C=C/C=C/C=C/C=C/C=C/[C@H](C)[C@@H](O)[C@@H](C)[C@H](C)OC(=O)C[C@H](O)C[C@H](O)CC[C@@H](O)[C@H](O)C[C@H](O)C[C@]3(O)C[C@H](O)[C@@H](C(=O)O)[C@H](C2)O3)C(O)C(N)C1O (some centres undefined),T/C,"dose: 4.0 mg/kg/injection, schedule: Q01DX009 (ip), vehicle: saline",149 % of control
same,survivor count,"dose: 32.0 mg/kg/injection, schedule: Q01DX009 (ip), vehicle: saline",3 of 10
same,survivor count,"dose: 64.0 mg/kg/injection, schedule: Q01DX009 (ip), vehicle: saline",0 of 10
same,survivor count,"dose: 128.0 mg/kg/injection, schedule: Q01DX009 (ip), vehicle: saline",0 of 10
"Cc1c2oc3c(C)ccc(C(=O)NC4C(=O)NC(C(C)C)C(=O)N5CCCC5C(=O)N(C)CC(=O)N(C)C(C(C)C)C(=O)OC4C)c3nc-2c(C(=O)NC2C(=O)NC(C(C)C)C(=O)N3CCC3C(=O)N(C)CC(=O)N(C)C(C(C)C)C(=O)OC2C)c(N)c1=O (centres undefined) (I: TV[Aze][Sar][NMeV] / II: TVP[Sar][NMeV]; ester I:1-I:C, II:1-II:C; linker I:N-II:N via Actinocin(1to9); configuration not given here)",survivor count,[6],10 of 10
same,survivor count,[7],10 of 10
same,survivor count,"dose: 600.0 micrograms/kg/injection, schedule: Q01DX009 (ip), vehicle: saline + alcohol",3 of 10
same,T/C,"dose: 750.0 micrograms/kg/injection, schedule: Q04DX003 (ip), vehicle: saline + alcohol",130 % of control
same,survivor count,"dose: 900.0 micrograms/kg/injection, schedule: Q04DX003 (ip), vehicle: saline + alcohol",8 of 8
same,survivor count,"dose: 1200.0 micrograms/kg/injection, schedule: Q01DX009 (ip), vehicle: saline + alcohol",1 of 10
same,survivor count,"dose: 1250.0 micrograms/kg/injection, schedule: Q04DX003 (ip), vehicle: saline + alcohol",8 of 8
same,survivor count,"dose: 1500.0 micrograms/kg/injection, schedule: Q04DX003 (ip), vehicle: saline + alcohol",8 of 8
same,survivor count,"dose: 1800.0 micrograms/kg/injection, schedule: Q01DX001 (ip), vehicle: saline + alcohol",5 of 8
same,survivor count,"dose: 3000.0 micrograms/kg/injection, schedule: Q01DX001 (ip), vehicle: saline + alcohol",0 of 8
Nc1ccc(OC(=O)Oc2ccc(N)cc2)cc1,survivor count,[3],9 of 10
CCCCCCCCCCCCCCCCCCCCCC(=O)Nc1ccn(C2OC(CO)C(O)C2O)c(=O)n1 (centres undefined),T/C,[5],149 % of control
same,T/C,"dose: 600.0 mg/kg/injection, schedule: Q01DX009 (ip), vehicle: saline with Tween-80",132 % of control
O=NN(CCCl)C(=O)NCCCl,survivor count,"dose: 24.0 mg/kg/injection, schedule: Q01DX009 (ip), vehicle: Klucel (hydroxypropylcellulose) (HPC)",10 of 10
same,T/C,"dose: 30.0 mg/kg/injection, schedule: Q01DX001 (ip), vehicle: saline + alcohol, evaluated on day 18",139 % of control
same,T/C,"dose: 30.0 mg/kg/injection, schedule: Q01DX001 (ip), vehicle: saline + alcohol, evaluated on day 60",139 % of control
CN(C)CCNc1ccc([N+](=O)[O-])c2sc3ccccc3c(=O)c12,T/C,[8],132 % of control
same,survivor count,[9],9 of 10
